Consider 2 molecules from publication PMC6428284.

The chains behind the UniProt entries cited, without tags or fusion partners.
UniProt Q12306: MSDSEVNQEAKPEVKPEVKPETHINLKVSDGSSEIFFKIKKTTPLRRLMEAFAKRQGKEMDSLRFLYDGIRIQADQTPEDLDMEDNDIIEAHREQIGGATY

Assay in all cases: two-hybrid; strain PJ69-4A (wild-type SMT3); GAL4BD-Yen1 or truncated/mutant derivatives as bait, GAL4AD fusions (pACTII) as prey; ten-fold serial dilutions spotted on SC-His and SC-Ade plates, 3 days at 30°C; library screen and directed tests
For test [1], the target named is T1, GBD-Yen1 (1–540) (S. cerevisiae) (UniProt P40028).
T1 sequence: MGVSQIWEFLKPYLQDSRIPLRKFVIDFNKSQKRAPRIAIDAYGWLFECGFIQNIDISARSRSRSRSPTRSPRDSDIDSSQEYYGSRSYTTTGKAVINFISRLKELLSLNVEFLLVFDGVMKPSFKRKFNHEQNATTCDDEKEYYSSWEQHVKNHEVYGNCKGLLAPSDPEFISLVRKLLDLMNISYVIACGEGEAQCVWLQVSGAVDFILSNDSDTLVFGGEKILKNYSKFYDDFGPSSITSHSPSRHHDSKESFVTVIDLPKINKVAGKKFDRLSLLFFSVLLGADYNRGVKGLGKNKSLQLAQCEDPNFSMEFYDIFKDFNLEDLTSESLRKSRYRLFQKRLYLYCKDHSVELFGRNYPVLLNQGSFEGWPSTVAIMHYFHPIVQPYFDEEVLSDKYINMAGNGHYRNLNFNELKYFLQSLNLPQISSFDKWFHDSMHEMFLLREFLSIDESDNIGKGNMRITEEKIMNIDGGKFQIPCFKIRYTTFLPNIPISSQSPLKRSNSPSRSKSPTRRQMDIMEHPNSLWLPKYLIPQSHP

The target of test [2] is T2, GBD-Yen1 (1–570) (S. cerevisiae) (UniProt P40028).
T2 sequence: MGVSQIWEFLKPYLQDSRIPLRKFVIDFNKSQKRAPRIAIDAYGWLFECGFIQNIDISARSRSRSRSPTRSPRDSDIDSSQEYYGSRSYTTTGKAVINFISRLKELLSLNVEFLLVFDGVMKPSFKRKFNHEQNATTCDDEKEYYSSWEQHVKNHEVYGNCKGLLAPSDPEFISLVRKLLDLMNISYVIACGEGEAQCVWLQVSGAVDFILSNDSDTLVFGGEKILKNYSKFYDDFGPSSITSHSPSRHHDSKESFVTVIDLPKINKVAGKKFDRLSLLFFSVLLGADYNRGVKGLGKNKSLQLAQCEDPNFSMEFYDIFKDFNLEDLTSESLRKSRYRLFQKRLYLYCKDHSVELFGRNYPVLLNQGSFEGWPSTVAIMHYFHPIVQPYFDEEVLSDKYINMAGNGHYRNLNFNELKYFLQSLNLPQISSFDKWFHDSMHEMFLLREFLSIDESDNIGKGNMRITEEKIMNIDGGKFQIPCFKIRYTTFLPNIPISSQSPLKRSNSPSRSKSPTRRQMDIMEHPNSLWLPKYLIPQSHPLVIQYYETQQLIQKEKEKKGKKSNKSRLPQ

Test [3] addresses T3, GBD-Yen1 (1–638) (S. cerevisiae) (UniProt P40028).
T3 sequence: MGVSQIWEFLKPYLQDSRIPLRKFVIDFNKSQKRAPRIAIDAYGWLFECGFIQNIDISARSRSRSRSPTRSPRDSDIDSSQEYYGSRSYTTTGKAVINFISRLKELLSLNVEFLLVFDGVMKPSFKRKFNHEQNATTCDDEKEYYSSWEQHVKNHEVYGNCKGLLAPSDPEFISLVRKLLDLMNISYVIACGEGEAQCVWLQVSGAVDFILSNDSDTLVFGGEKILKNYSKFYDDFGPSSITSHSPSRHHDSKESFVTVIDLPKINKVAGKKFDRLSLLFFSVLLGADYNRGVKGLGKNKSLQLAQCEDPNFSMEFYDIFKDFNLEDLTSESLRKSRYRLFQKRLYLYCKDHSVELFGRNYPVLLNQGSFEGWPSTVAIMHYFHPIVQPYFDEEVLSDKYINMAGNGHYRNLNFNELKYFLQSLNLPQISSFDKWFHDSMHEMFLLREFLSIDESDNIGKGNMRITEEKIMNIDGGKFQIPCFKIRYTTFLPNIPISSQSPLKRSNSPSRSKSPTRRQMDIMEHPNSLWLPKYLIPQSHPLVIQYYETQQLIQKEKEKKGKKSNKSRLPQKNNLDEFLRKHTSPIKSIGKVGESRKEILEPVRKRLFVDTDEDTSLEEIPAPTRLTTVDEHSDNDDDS

In test [4] the target is T4, GBD-Yen1 (1–690) (S. cerevisiae) (UniProt P40028).
T4 sequence: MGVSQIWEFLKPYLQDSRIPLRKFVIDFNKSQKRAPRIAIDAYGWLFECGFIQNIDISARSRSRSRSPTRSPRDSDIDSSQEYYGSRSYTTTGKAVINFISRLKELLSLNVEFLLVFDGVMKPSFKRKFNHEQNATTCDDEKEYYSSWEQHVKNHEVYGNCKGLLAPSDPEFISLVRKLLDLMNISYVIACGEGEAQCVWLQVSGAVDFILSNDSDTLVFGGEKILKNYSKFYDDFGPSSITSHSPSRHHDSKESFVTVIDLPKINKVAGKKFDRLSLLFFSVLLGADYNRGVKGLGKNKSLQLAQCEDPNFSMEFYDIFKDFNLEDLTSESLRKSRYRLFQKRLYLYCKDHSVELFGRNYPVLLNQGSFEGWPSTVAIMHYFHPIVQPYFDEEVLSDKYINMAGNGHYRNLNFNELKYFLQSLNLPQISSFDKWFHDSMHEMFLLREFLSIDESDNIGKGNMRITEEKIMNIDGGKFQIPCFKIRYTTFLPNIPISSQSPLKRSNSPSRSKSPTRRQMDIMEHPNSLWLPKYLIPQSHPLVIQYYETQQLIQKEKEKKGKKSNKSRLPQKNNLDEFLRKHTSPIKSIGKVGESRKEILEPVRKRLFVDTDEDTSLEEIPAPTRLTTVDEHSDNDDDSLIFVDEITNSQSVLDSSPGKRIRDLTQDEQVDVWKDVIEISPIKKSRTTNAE

Test [5] has as its target T5, Gal4 DNA binding domain-Yen1 (full-length YEN1 in pAS1, plasmid pJ90) (S. cerevisiae) (UniProt P40028).
T5 sequence: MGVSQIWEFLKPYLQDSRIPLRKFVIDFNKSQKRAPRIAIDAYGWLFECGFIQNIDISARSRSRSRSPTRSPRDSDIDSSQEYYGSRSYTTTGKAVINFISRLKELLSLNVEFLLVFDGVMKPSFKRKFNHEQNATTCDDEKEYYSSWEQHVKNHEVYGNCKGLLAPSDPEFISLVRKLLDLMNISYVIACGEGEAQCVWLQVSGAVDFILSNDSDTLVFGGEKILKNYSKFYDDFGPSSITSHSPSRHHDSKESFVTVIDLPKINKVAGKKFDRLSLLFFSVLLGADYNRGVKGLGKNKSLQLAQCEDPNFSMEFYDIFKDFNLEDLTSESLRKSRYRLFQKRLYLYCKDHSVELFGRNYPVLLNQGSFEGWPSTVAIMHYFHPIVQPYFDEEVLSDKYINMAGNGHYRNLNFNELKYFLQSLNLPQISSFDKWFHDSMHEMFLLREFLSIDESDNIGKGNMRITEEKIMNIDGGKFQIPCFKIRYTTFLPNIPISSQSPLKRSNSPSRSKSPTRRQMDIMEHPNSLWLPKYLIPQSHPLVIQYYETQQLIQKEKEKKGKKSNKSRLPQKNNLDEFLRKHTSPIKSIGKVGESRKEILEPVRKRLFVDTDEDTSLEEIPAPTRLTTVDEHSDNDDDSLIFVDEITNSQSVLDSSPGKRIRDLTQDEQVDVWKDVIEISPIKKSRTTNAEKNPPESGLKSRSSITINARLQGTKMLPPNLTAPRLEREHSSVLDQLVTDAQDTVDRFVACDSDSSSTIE

For test [6], the target named is T1, GBD-Yen1 (1–540) (S. cerevisiae). This is another data set of the same source.
For test [7], the target named is T2, GBD-Yen1 (1–570) (S. cerevisiae). This is another data set of the same source.
Test [8] addresses T3, GBD-Yen1 (1–638) (S. cerevisiae). This is another data set of the same source.
The target of test [9] is T4, GBD-Yen1 (1–690) (S. cerevisiae). The source holds these as a separate data set.
The target of test [10] is T5, Gal4 DNA binding domain-Yen1 (full-length YEN1 in pAS1, plasmid pJ90) (S. cerevisiae). This is another data set of the same source.

Read-outs that look alike come from different tables or passages of the source. Results are given in words; binding and its absence hold for the method and conditions named. Some results given as binding are weak or reduced against the parent protein; the word gives no strength.

With “GAL4AD-Smt3 (full length Smt3 in pACTII, plasmid pF11) (from UniProt Q12306 1-101)”, the binding entry is “no binding” in test [1]; “no binding” in test [2]; “binds” in [3]; “binds” in [4]; “binds” in test [5].

B1: GAL4AD-Uls1 336–599 (domain or fragment, UniProt Q08562 336-599)
chain: GDFADNKILKRPILPSKNMDHTTHNSHDSEQKNSSIIILSDEDESGAGINDIESPLKVSEPNTADALRSSVPEVISLLDLPNIDLNNSVIKEASGSNSIPTSETDAQSSSSSVLQGTIMTEQATQSSQHECNSSLDTLKKNHQKLLKDLNSRESELRNALSCCKTNSEILRRKLSRREKEVSDAEKHWQLLLTSMARGGRTISSTQQILVDEAENQLNKLKEKRQLTKSKLDSINLKMYNYNEQWKSFVHSKNINLQKSLAALE
Consider B1, for which the binding result in test [6] is recorded as “binds weakly”; in [7], “binds weakly”; in test [8] it was “binds”; in test [9], “binds”; in test [10], “binds”.
